The values below come from PubChem BioAssay AID624319 (Sanford-Burnham Center for Chemical Genomics, 2012).

Chains of the proteins cited; added tags and fusions are not shown. Lines headed by an entry give the natural chain unless they say otherwise; changes in a name come on top.
UniProt Q96LD8: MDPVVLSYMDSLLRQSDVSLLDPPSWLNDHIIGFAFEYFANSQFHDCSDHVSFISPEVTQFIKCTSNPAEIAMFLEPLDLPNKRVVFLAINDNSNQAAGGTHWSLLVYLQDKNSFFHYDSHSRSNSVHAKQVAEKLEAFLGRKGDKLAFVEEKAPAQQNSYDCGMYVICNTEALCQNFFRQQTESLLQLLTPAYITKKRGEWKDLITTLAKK

Among all 1,400 compounds or so, about 210 (15%) were called active. No stated cut-off is given here; in the data, active means inhibition mostly above about 39% (no sharp cut-off); inactive means mostly below about 34%. The list shows a part of the results, in another mix than the full data.

This test has as its target Sentrin-specific protease 8 (Homo sapiens) (UniProt Q96LD8). Kind of test: retest of SENP8 deneddylase blockers – biochemical, Nedd8 protein substrate, single concentration, confirmation (AID 624319). The following applies: purified SENP8, Nedd8-AMC/pro-Nedd8 cleavage fluorescence, 30 min; at 25 µM; hits give high values.
Take `COc1ccccc1N=Nc1c(O)[nH]c(=S)[nH]c1=O`: the inhibition was inactive: 31.1%.

Consider `CC(Cc1ccccc1)NC=O` (stereo not drawn), for which the inhibition was inactive: 7.84%.

As for `CC1=C2C(=O)C3C(CC=C4CC(OC5OC(O)C(O)C(O)C5CO)CCC43C)C2CCC12OC1CC(C)CNC1C2C` (stereo not drawn), the inhibition was inactive: 3.46%.

In general, inhibition refers to the drop in the measured response relative to a control, in per cent.
